Assay results reported in the supplement of paper PMC6411743.
± gives the standard deviation of the averaged measurements. This is one part of the list.

Sequences of proteins named here, by UniProt entry; tags and fusion partners are left off. A change or cut given only in a name is not applied to a line headed by its entry.
UniProt P11908: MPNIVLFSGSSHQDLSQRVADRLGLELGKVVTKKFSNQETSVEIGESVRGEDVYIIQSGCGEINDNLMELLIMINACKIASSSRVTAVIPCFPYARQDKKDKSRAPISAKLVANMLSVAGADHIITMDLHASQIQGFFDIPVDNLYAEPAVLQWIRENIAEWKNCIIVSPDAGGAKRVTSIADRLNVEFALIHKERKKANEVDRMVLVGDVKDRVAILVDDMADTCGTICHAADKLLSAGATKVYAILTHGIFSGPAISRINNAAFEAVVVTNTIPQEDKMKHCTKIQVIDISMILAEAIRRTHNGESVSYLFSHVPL
UniProt P24723, whole entry, looked up: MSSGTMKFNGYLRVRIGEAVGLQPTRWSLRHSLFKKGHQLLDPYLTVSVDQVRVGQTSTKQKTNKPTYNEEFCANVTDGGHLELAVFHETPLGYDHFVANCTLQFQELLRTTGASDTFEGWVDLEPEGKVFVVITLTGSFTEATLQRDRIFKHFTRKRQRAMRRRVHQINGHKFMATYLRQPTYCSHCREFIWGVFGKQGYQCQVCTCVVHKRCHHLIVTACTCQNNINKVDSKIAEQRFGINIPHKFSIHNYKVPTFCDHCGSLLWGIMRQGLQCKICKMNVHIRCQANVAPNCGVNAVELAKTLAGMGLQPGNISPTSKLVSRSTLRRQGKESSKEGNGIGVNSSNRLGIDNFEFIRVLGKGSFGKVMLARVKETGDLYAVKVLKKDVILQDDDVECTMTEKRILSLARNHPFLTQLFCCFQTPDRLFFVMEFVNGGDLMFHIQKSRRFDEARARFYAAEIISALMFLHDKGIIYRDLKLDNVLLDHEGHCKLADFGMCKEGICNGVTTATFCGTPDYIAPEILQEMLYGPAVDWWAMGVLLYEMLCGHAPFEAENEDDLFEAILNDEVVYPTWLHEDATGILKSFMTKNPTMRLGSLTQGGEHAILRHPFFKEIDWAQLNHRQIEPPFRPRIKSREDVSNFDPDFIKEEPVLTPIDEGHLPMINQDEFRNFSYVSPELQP
UniProt P15170, whole entry: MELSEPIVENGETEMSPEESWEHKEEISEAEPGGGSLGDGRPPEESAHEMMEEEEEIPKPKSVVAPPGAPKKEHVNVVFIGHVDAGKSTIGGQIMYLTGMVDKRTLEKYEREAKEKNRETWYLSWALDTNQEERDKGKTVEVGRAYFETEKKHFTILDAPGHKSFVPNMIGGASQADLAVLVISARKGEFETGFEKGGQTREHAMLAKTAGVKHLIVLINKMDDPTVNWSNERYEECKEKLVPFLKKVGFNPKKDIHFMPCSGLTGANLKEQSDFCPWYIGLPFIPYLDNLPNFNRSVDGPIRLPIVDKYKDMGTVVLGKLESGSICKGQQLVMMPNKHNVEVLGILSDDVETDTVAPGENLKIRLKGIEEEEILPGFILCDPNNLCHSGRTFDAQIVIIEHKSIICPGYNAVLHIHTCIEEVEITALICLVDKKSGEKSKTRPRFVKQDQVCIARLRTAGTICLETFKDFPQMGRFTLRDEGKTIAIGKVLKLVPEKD
UniProt P15814: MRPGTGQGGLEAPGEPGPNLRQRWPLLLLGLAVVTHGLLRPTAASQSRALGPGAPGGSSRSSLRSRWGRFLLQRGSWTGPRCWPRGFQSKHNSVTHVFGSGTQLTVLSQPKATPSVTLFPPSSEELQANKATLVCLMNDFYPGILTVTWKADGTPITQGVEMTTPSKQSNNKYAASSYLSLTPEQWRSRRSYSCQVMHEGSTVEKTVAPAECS
UniProt P13861, whole entry: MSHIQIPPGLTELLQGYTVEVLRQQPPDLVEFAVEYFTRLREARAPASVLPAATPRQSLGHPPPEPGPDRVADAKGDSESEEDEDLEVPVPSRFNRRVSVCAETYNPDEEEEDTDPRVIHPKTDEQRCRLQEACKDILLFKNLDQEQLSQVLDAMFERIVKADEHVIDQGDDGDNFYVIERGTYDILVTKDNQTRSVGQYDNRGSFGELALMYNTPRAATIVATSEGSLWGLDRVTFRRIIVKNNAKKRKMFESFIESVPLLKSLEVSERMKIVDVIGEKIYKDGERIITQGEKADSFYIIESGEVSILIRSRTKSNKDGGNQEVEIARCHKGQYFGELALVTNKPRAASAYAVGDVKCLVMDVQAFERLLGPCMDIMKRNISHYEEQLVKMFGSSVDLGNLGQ
UniProt P25325: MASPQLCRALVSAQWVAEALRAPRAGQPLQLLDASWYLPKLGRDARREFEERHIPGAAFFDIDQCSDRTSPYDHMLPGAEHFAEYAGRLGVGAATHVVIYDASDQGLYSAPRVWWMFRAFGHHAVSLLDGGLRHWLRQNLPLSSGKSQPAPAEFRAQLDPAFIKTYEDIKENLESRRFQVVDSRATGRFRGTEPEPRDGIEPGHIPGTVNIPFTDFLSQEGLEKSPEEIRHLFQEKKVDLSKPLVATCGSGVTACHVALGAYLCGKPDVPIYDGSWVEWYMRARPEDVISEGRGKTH
UniProt P16930: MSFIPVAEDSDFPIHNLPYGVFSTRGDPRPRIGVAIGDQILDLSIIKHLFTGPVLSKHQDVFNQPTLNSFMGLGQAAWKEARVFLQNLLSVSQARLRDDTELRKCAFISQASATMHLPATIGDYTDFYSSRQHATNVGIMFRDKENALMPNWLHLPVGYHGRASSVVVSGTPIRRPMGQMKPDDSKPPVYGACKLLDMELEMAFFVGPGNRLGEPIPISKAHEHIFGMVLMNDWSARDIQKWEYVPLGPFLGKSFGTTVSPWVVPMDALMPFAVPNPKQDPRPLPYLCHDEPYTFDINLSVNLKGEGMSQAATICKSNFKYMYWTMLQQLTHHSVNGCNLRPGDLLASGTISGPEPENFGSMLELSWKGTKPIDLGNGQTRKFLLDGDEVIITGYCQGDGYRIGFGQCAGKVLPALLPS
UniProt P23284: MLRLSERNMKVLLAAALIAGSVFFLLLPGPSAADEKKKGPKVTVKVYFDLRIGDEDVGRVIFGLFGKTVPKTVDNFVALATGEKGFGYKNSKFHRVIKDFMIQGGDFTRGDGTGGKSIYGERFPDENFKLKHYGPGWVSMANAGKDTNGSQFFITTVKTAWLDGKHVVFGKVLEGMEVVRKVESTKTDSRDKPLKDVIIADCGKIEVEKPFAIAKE
UniProt P12004, whole entry: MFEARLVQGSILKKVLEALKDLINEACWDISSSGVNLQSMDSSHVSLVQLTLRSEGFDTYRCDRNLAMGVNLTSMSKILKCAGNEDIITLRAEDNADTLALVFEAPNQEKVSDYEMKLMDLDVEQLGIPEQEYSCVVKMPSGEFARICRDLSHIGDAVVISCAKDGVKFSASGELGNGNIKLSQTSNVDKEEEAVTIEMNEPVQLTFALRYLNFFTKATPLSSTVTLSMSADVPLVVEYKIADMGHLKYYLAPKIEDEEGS
UniProt P14618, whole entry, looked up: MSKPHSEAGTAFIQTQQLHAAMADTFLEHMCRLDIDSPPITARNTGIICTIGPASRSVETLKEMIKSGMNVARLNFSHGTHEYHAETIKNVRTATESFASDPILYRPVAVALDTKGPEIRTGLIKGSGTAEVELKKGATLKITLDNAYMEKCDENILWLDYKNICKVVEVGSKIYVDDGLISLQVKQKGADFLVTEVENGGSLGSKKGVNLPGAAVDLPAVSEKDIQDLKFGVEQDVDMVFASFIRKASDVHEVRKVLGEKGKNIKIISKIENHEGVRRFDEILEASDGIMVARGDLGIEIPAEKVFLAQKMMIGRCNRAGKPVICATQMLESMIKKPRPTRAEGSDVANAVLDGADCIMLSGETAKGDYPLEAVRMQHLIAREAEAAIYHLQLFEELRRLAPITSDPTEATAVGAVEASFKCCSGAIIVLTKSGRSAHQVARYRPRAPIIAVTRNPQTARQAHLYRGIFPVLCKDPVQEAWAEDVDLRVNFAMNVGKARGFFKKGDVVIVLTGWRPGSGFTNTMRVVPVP
UniProt P10768: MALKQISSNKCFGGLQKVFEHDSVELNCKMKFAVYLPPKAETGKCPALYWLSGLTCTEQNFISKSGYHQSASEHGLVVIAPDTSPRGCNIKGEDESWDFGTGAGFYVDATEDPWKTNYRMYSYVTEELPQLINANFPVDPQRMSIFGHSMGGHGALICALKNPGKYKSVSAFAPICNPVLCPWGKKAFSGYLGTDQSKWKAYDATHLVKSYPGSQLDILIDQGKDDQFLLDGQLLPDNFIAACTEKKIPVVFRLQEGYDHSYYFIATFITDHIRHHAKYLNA
UniProt P23634: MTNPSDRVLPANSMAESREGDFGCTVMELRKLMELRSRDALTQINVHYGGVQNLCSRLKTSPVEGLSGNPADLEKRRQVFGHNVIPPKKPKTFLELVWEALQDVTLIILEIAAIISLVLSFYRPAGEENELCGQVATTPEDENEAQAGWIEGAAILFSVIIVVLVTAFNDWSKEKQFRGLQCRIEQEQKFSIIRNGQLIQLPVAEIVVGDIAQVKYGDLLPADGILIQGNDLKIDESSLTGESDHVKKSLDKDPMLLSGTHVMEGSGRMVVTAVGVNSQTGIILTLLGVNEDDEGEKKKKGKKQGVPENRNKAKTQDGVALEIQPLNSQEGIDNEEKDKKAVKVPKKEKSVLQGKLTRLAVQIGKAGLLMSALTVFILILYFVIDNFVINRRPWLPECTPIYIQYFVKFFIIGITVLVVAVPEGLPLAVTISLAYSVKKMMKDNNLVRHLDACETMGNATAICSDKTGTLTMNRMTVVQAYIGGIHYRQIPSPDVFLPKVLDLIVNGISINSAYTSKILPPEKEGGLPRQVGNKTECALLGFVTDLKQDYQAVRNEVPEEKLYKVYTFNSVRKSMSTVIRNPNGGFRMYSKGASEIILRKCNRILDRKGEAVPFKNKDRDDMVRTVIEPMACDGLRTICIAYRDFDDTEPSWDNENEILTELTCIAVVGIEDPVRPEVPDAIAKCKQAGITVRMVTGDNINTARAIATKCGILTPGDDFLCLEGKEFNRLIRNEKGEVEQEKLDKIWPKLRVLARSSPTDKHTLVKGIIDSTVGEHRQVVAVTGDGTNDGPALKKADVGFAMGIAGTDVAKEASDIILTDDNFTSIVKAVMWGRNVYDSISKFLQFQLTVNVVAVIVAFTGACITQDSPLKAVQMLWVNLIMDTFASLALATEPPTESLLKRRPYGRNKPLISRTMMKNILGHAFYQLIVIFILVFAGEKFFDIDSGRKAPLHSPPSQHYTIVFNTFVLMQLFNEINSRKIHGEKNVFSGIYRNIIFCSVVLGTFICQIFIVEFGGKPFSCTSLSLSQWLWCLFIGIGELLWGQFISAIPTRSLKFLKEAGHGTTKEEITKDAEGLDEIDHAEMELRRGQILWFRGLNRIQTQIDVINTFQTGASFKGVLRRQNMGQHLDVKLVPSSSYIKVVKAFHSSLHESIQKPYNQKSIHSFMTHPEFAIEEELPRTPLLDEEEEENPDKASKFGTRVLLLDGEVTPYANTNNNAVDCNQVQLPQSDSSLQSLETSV
UniProt P35520: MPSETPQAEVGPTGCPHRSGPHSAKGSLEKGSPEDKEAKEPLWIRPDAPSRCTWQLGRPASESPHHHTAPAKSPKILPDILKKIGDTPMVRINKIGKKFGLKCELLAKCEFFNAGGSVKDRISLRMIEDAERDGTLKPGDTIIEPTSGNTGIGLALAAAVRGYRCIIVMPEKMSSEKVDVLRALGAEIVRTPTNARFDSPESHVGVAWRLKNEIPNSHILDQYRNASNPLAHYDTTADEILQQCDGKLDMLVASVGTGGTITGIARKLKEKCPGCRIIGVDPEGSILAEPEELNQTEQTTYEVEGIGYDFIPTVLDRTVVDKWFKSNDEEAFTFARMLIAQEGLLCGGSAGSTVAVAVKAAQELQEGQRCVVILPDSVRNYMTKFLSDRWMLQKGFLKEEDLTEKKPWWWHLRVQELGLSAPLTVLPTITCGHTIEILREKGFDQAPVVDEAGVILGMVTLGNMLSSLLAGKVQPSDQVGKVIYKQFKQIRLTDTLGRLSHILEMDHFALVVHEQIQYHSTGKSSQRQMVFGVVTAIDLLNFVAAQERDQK
UniProt P22307: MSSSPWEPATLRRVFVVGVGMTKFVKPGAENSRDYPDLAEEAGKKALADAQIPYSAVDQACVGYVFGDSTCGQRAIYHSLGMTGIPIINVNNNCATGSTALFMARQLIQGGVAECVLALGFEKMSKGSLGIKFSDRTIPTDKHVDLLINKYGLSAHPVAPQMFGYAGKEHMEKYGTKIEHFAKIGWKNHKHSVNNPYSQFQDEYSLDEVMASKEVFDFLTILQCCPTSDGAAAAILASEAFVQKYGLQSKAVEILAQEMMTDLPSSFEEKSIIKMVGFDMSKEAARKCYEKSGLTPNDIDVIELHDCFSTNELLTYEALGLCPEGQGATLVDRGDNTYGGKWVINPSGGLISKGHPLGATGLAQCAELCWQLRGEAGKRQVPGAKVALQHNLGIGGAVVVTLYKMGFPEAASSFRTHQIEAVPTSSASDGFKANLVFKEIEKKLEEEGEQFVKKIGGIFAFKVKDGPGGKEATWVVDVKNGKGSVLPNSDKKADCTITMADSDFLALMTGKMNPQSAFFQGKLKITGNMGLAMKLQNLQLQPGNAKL

Compound: Nc1nc2c(ncn2[C@@H]2O[C@H](COP(=O)(O)OP(=O)(O)OP(=O)(O)O)[C@@H](O)[C@H]2O)c(=O)[nH]1 [guanosine triphosphate]
Assay: NP40-soluble protein abundance relative to vehicle (solubility fold change) (ratio); higher = more soluble protein in presence of GTP
Outline: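 In three independent experiments, Jurkat crude lysate made by Dounce homogenisation was treated for 10 min at room temperature and then 3 min at 37 °C with eight concentrations ranging from 0.1 to 10 mM. It was then solubilised with 0.8% NP40 plus benzonase for 60 min at 4 °C and ultracentrifuged. The supernatant was TMT-labelled for LC-MS/MS, and each value is the fold change against the detergent-processed vehicle for the same replicate, using vsn-normalised intensities.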

Target	NP40-soluble protein abundance (concentration: 0.1mM)	NP40-soluble protein abundance (concentration: 0.5mM)	NP40-soluble protein abundance (concentration: 1mM)	NP40-soluble protein abundance (concentration: 2mM)	NP40-soluble protein abundance (concentration: 4mM)	NP40-soluble protein abundance (concentration: 6mM)	NP40-soluble protein abundance (concentration: 8mM)	NP40-soluble protein abundance (concentration: 10mM)
PRPS2 (UniProt P11908)	1.03 ± 0.13	1.17 ± 0.2	1.16 ± 0.27	1.26 ± 0.24	1.22 ± 0.26	1.27 ± 0.29	1.26 ± 0.33	1.24 ± 0.26
PRKCH (UniProt P24723)	1.05 ± 0.011	1.02 ± 0.037	0.932 ± 0.026	0.962 ± 0.032	0.947 ± 0.037	0.914 ± 0.024	0.906 ± 0.066	0.878 ± 0.078
UniProt P25788 and related entries	1.04 ± 0.05	1.03 ± 0.1	1.01 ± 0.11	1.04 ± 0.17	1.06 ± 0.17	1.06 ± 0.18	1.03 ± 0.13	0.992 ± 0.17
UniProt P22314 and related entries	0.963 ± 0.021	0.996 ± 0.022	0.913 ± 0.024	0.9054 ± 0.0072	0.893 ± 0.013	0.891 ± 0.015	0.862 ± 0.035	0.863 ± 0.035
UniProt P09497-2	1.09 ± 0.093	1.05 ± 0.046	1.14 ± 0.052	1.04 ± 0.075	1.06 ± 0.013	1.04 ± 0.036	1.13 ± 0.076	1.09 ± 0.047
GOT1 (UniProt P17174)	0.969 ± 0.033	0.9833 ± 0.0066	0.916 ± 0.035	0.913 ± 0.038	0.878 ± 0.043	0.892 ± 0.037	0.865 ± 0.044	0.876 ± 0.033
UniProt P13498 and related entries	1.01 ± 0.053	1 ± 0.073	1.02 ± 0.13	0.941 ± 0.14	0.929 ± 0.09	0.941 ± 0.086	0.973 ± 0.051	0.963 ± 0.069
UniProt P15170-2|P15170-3	0.903 ± 0.05	0.946 ± 0.05	0.89 ± 0.051	0.862 ± 0.048	0.839 ± 0.044	0.863 ± 0.057	0.853 ± 0.054	0.856 ± 0.051
UniProt P16989 and related entries	0.947 ± 0.022	0.912 ± 0.069	0.997 ± 0.047	0.903 ± 0.066	0.813 ± 0.078	0.783 ± 0.093	0.747 ± 0.062	0.697 ± 0.11
AMD1 (UniProt P17707)	1.2 ± 0.21	1.16 ± 0.087	1.22 ± 0.11	1.2 ± 0.23	1.21 ± 0.2	1.2 ± 0.1	1.16 ± 0.082	1.13 ± 0.06
IGLL1 (UniProt P15814)	0.951 ± 0.03	0.966 ± 0.057	1.02 ± 0.013	1.0165 ± 0.001	1.02 ± 0.036	0.972 ± 0.048	0.996 ± 0.028	1.01 ± 0.036
UniProt P13861 and related entries	0.993 ± 0.024	0.9712 ± 0.0063	0.98 ± 0.0095	0.966 ± 0.02	1.006 ± 0.004	0.981 ± 0.016	0.994 ± 0.017	0.98 ± 0.04
UniProt P10398 and related entries	1.1 ± 0.057	1.19 ± 0.11	1.21 ± 0.17	1.27 ± 0.13	1.21 ± 0.26	1.27 ± 0.21	1.25 ± 0.14	1.2 ± 0.14
UniProt P25325 and related entries	0.979 ± 0.02	1 ± 0.06	0.98 ± 0.05	0.98 ± 0.066	0.938 ± 0.054	0.966 ± 0.074	0.963 ± 0.046	0.977 ± 0.038
UniProt P16930 and related entries	1.02 ± 0.073	1.02 ± 0.055	0.921 ± 0.044	0.9 ± 0.082	0.892 ± 0.074	0.886 ± 0.056	0.8305 ± 0.0077	0.811 ± 0.075
PPIB (UniProt P23284)	0.896 ± 0.11	0.915 ± 0.088	0.897 ± 0.099	0.872 ± 0.099	0.895 ± 0.11	0.89 ± 0.1	0.919 ± 0.11	0.905 ± 0.11
UniProt P15927-2	0.95 ± 0.06	0.893 ± 0.048	0.956 ± 0.052	0.907 ± 0.099	0.905 ± 0.052	0.893 ± 0.073	0.901 ± 0.066	0.883 ± 0.057
UniProt P23469 and related entries	1 ± 0.14	1 ± 0.14	0.868 ± 0.2	0.86 ± 0.094	0.884 ± 0.096	0.991 ± 0.23	0.843 ± 0.16	0.88 ± 0.15
PCNA (UniProt P12004)	0.949 ± 0.021	0.961 ± 0.015	0.933 ± 0.031	0.895 ± 0.044	0.868 ± 0.051	0.899 ± 0.052	0.879 ± 0.032	0.862 ± 0.049
UniProt P08243 and related entries	1.02 ± 0.057	1.09 ± 0.047	0.953 ± 0.034	0.979 ± 0.012	0.919 ± 0.052	0.944 ± 0.015	0.947 ± 0.027	0.925 ± 0.048
ACO1 (UniProt P21399)	1.026 ± 0.0069	1.01 ± 0.015	0.929 ± 0.013	0.923 ± 0.02	0.928 ± 0.04	0.881 ± 0.034	0.889 ± 0.046	0.855 ± 0.077
UniProt P14618 and related entries	0.97 ± 0.03	0.994 ± 0.076	0.905 ± 0.052	0.902 ± 0.052	0.914 ± 0.046	0.878 ± 0.067	0.858 ± 0.036	0.835 ± 0.017
ESD (UniProt P10768)	0.959 ± 0.015	0.958 ± 0.032	0.924 ± 0.032	0.876 ± 0.025	0.882 ± 0.034	0.897 ± 0.04	0.875 ± 0.044	0.839 ± 0.059
ZNF22 (UniProt P17026)	0.981 ± 0.014	1.11 ± 0.11	1.09 ± 0.065	1.06 ± 0.033	1.1 ± 0.012	1.1 ± 0.1	1.2 ± 0.059	1.34 ± 0.13
UniProt P23634 and related entries	0.982 ± 0.049	1.01 ± 0.041	0.912 ± 0.025	0.941 ± 0.026	0.912 ± 0.064	0.9293 ± 0.0091	0.875 ± 0.066	0.897 ± 0.061
P0DN79 and related entries (UniProt P35520+P0DN79)	1.07 ± 0.06	1.03 ± 0.052	1.01 ± 0.026	1.01 ± 0.064	1.02 ± 0.017	0.984 ± 0.1	1.01 ± 0.036	1.03 ± 0.075
UniProt P08651 and related entries	1.05 ± 0.083	1.04 ± 0.05	1.08 ± 0.025	1.01 ± 0.06	1.03 ± 0.043	1 ± 0.047	1.09 ± 0.055	1.04 ± 0.093
UniProt P22307 and related entries	0.893 ± 0.025	0.88 ± 0.053	0.92 ± 0.032	0.894 ± 0.064	0.879 ± 0.065	0.891 ± 0.066	0.866 ± 0.097	0.893 ± 0.075
UniProt P15812 and related entries	0.994 ± 0.041	0.973 ± 0.059	0.949 ± 0.069	0.877 ± 0.054	0.939 ± 0.082	0.933 ± 0.11	0.884 ± 0.1	0.888 ± 0.082
POLR2E (UniProt P19388)	1.06 ± 0.11	1.09 ± 0.11	1.15 ± 0.16	1.19 ± 0.18	1.22 ± 0.18	1.19 ± 0.19	1.16 ± 0.16	1.11 ± 0.16

For reference, part of the list above.
Target	NP40-soluble protein abundance (concentration: 0.1mM)	NP40-soluble protein abundance (concentration: 0.5mM)	NP40-soluble protein abundance (concentration: 1mM)	NP40-soluble protein abundance (concentration: 2mM)	NP40-soluble protein abundance (concentration: 4mM)	NP40-soluble protein abundance (concentration: 6mM)	NP40-soluble protein abundance (concentration: 8mM)	NP40-soluble protein abundance (concentration: 10mM)
UniProt P14618 and related entries	0.97 ± 0.03	0.994 ± 0.076	0.905 ± 0.052	0.902 ± 0.052	0.914 ± 0.046	0.878 ± 0.067	0.858 ± 0.036	0.835 ± 0.017
ESD (UniProt P10768)	0.959 ± 0.015	0.958 ± 0.032	0.924 ± 0.032	0.876 ± 0.025	0.882 ± 0.034	0.897 ± 0.04	0.875 ± 0.044	0.839 ± 0.059
